Data source: PubChem BioAssay AID504786 (Drosophila RNAi Screening Center, 2011)
The screen tested about 21,000 reagents; this is a random part of those with a known target gene and a result. 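Primary screen; positive scores mean lost reporter signal, so the sign may be inverted from the usual convention.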 Names joined by + are all predicted targets of the reagent. Further read-outs or replicates are left out here. Reagent sequences are not shown.

- Assay: 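Fly genes required for HIF-dependent transcription when hypoxia is mimicked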 (primary screen)
- Cell system: Drosophila S2 cells with a stable HIF luciferase reporter
- Reagent: long dsRNA against Drosophila genes, about 0.2 µg dsRNA per well of a 384-well plate
- Duration: three days of knock-down, then 20 h of DFO before reading
- Treatment: desferrioxamine (DFO) at 100 µM, an iron chelator that mimics hypoxia, for 20 h
- Read-out: 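HIF reporter luminescence in cells given 100 µM DFO for 20 h, using the mouse ldh-a hypoxia-response element, scored as per-plate z-scores; higher means greater loss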
- Direction: z-score: higher = stronger loss of HIF reporter signal

What did the screen give for CG34323 [SID104198708]?
z-score, replicate 1: -0.1

Which result is listed for CG4328 [SID104190202]?
z-score, replicate 1: 3.8

With CG14805 [SID104198346], what does the deposit list?
z-score, replicate 1: 0.2

How did the screen score Mbs [SID104189206]?
z-score, replicate 1: -0.6

How did the screen score Mbs [SID104190317]?
z-score, replicate 1: -0.3

With Mbs [SID104190345], how do the results read?
z-score, replicate 1: -0.2

What did the screen give for Asciz [SID104188213]?
z-score, replicate 1: -0.1

What is on record for Pi3K92E [SID104196580]?
z-score, replicate 1: -0.1

What is on record for CG6324 [SID104199777]?
z-score, replicate 1: -0.2

For eIF3b [SID104186692], what does the deposit list?
z-score, replicate 1: 4.9

How did the screen score Myo31DF [SID104183168]?
z-score, replicate 1: -0.4

What did the screen give for CG4629 [SID104180451]?
z-score, replicate 1: -0.2

For CG10102 (retired record) [SID104185755], what was measured?
z-score, replicate 1: 1

With QIL1 [SID104190680], what was measured?
z-score, replicate 1: 1

For CG9897 + asRNA:CR42742 [SID104184387], how do the results read?
z-score, replicate 1: -0.2

What did the screen give for CG17841 [SID104197529]?
z-score, replicate 1: -0.4

What is on record for Dys [SID104193152]?
z-score, replicate 1: -0.4

Which result is listed for Dys [SID104193156]?
z-score, replicate 1: -0.5

With Dys [SID104195052], what was measured?
z-score, replicate 1: -0.7

With Dys [SID104196010], what does the deposit list?
z-score, replicate 1: -0.5

Which result is listed for Dys [SID104196011]?
z-score, replicate 1: -0.4

What is on record for Dys [SID104196012]?
z-score, replicate 1: -0.1

For Dys [SID104196727], how do the results read?
z-score, replicate 1: -0.3

With sli [SID104187476], how do the results read?
z-score, replicate 1: -0.1

What is on record for CG34038 [SID104183831]?
z-score, replicate 1: -0.2

With CG17739 [SID104186481], what does the deposit list?
z-score, replicate 1: -0.3

For Grasp65 [SID104190709], what does the deposit list?
z-score, replicate 1: -0.3

For CG33061 [SID104189730], what was measured?
z-score, replicate 1: -0.2

With CG15035 [SID104197759], what was measured?
z-score, replicate 1: -0.3

How did the screen score sws [SID104198635]?
z-score, replicate 1: 0.1

How did the screen score Argk1 [SID104188751]?
z-score, replicate 1: -0.3

With Argk1 [SID104189460], how do the results read?
z-score, replicate 1: 0

How did the screen score Argk1 [SID104190252]?
z-score, replicate 1: -0.3

What is on record for put [SID104196831]?
z-score, replicate 1: -0.2

For CR30068 (retired record) [SID104185269], how do the results read?
z-score, replicate 1: -0.3

Which result is listed for mRpL52 [SID104186377]?
z-score, replicate 1: 0.9

What is on record for Men [SID104192716]?
z-score, replicate 1: 0.2

For Men [SID104196530], what was measured?
z-score, replicate 1: -0.2

What is on record for CG8149 [SID104196183]?
z-score, replicate 1: 0.1

For CG10581 [SID104191415], how do the results read?
z-score, replicate 1: -0.3

With CG17027 [SID104190030], what does the deposit list?
z-score, replicate 1: -0.3

What did the screen give for beat-Vb [SID104192732]?
z-score, replicate 1: -0.2

What did the screen give for beat-Vb [SID104194636]?
z-score, replicate 1: 1.4

With beat-Vb [SID104194637], how do the results read?
z-score, replicate 1: 0

How did the screen score Atg8b [SID104194293]?
z-score, replicate 1: -0.2

For Jheh2 [SID104186322], how do the results read?
z-score, replicate 1: -0.2

With Tango10 [SID104199599], what was measured?
z-score, replicate 1: 0.1

With CG15628 [SID104180048], what does the deposit list?
z-score, replicate 1: -0.3

How did the screen score CG15628 [SID104180255]?
z-score, replicate 1: -0.3

What did the screen give for Mctp [SID104186302]?
z-score, replicate 1: -0.4

For Cp110 [SID104200422], what was measured?
z-score, replicate 1: -0.3

Ordered by “z-score, replicate 1” (lowest first): 6 of the entries above.
CG10581 [SID104191415] | z-score, replicate 1: -0.3
CG17027 [SID104190030] | z-score, replicate 1: -0.3
beat-Vb [SID104192732] | z-score, replicate 1: -0.2
beat-Vb [SID104194637] | z-score, replicate 1: 0
CG8149 [SID104196183] | z-score, replicate 1: 0.1
beat-Vb [SID104194636] | z-score, replicate 1: 1.4
